Where “and” joins values, the source holds several entries; their conditions need not be identical. Equal values may be shown once. About 17,000 (5.5%) of roughly 310,000 compounds were called active. The shares of active, inactive and inconclusive entries below differ from those in the screen. Calls come from the whole dose curve; as a rule, active = well fitted inhibition curve with a large enough effect; inconclusive = small, poorly fitted or top-dose-only effect, or effect the other way; inactive = no such curve, though single readings can be large or run the other way. Potencies beside an inconclusive call are fits to weak or partial responses and may not hold up.
molecular target: Nuclear receptor ROR-gamma (Mus musculus) (UniProt P51450); assay: qHTS for inhibitors of ROR gamma transcriptional activity; settings: Drosophila S2 Gal4-RORgamma UAS-luciferase reporter, 20 h; activity change, negative = inhibition: at 53.6 µM (top of the series); note: nearly all actives have a fitted effect of over 60% in size
Procedure, shortened: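 Schneider cells (Drosophila), stable Gal4 DBD–ROR gamma + UAS-luc; 1 hr cmpd preincubation; Cu2+ induction 700 uM final; 20 hr ambient; luminescence.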
% is set by controls: 0 for no effect and ±100 for the full control effect; potency is the fitted concentration of half-maximal effect.

Amino acid sequences for entries named in this document (tags omitted). A change or cut given only in a name is not applied to a line headed by its entry.
UniProt P51450: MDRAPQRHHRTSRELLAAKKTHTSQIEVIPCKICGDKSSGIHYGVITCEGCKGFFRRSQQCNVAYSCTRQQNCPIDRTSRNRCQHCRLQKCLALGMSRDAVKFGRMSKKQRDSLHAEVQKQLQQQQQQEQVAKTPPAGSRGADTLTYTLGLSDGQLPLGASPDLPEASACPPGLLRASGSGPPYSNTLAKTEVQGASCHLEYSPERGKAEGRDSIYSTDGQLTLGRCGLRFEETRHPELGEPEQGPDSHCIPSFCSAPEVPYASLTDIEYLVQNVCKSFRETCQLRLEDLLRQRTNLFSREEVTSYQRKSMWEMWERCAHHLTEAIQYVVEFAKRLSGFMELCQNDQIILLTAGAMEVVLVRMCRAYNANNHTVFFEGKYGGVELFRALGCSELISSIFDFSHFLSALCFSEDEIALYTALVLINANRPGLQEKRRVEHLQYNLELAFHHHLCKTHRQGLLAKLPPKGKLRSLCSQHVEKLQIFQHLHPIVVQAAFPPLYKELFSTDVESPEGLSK

Row | Structure (SMILES) | Potency | activity change, negative = inhibition
1 | CCN(CC)c1ccc(C(=S)NC2CCCCC2)cc1 | active: 8.91 µM | 
2 | COc1ccc(C(=O)OCC(=O)Nc2ccc(F)c(F)c2)cc1OC | inconclusive: 31.6 µM [activator, single point] | 
3 | COc1ccc(C(CC(=O)c2ccc(C)cc2)C(C#N)C#N)cc1OC (stereo not drawn) | inconclusive: 35.5 µM [inhibitor, single point] | 
4 | COc1ccc(NS(=O)(=O)c2ccc(NC(=S)NC(=O)/C=C/c3ccccc3)cc2)nn1 | inconclusive: 7.08 µM [activator, partial curve] | 
5 | COc1ccc(OC)c(C2Nc3c(Cl)ccc(C(=O)O)c3C3C=CCC32)c1 (stereo not drawn) |  | inactive: 27.7%
6 | Cc1cccc(C2C3=C(Nc4[nH]n(-c5ccccc5)c(=O)c42)c2ccccc2C3=O)c1 (stereo not drawn) | inconclusive: 31.6 µM [activator, single point] | 
7 | Cc1nc2ccccc2n1CC(O)COC1CCCCC1 (stereo not drawn) | inconclusive: 15.8 µM [activator, single point] | 
8 | O=C(N/N=C/c1ccccn1)c1cc(Br)ccc1O | active: 3.98 µM | 
9 | CCc1ccccc1NC(=O)CSc1nnc([C@H](CCSC)NC(=O)OC(C)(C)C)o1 |  | inactive: -5.02%
10 | C=C(C)CCC(C)N1CCC(n2nccc2NC(=O)CCCc2ccccc2)CC1 (stereo not drawn) |  | inactive: -7.22%
11 | CC1(C)C(C=C(Cl)Cl)C1C(=O)N1CCN(Cc2ccccc2)CC1 (stereo not drawn) | inconclusive: 35.5 µM [activator, single point] | 
12 | COc1ccc(C(=O)Oc2ccc3oc(=O)sc3c2)cc1 |  | inactive: -18.2%
13 | Cc1cc(O)c(C)c2c1CC[C@H]1[C@H](C)C(=O)O[C@H]21 |  | inactive: -19.1%
14 | O=S(=O)(Nc1nc2ccccc2nc1Cl)c1ccc2ccccc2c1 | inconclusive: 35.5 µM [activator, single point] | 
15 | O=C(Nc1nc2c(s1)CCCC2)c1cc(-c2ccncc2)nc2ccccc12 | inconclusive: 35.5 µM [inhibitor, single point] | 
16 | O=c1cc(-c2cccc(F)c2)[nH]c2ccc(Cl)cc12 | inconclusive: 50.1 µM [activator, single point] | 
17 | COc1cc2c(cc1N/C=C(\C#N)c1nc(-c3ccccc3)cs1)oc1ccccc12 |  | inactive: 1.42%
18 | Oc1ccc(-c2cc(-c3ccc(O)cc3)nc(-c3ccccc3)n2)cc1 |  | inactive: -15%
19 | N#C/C(=C\c1cccnc1)c1nc2ccccc2[nH]1 | inconclusive: 11.2 µM [inhibitor, partial curve, poor fit] | 
20 | Cc1ccc(-n2nnnc2SCC(=O)Nc2nc(-c3ccc(F)cc3)cs2)cc1C | inconclusive: 2 µM [inhibitor, full curve] | 
21 | CC1c2cc3c(cc2CCN1C(=O)c1ccc(Cl)cc1)OCCCO3 (stereo not drawn) |  | inactive: 22%
22 | CCOC(=O)c1n[nH]n2c1nc(=S)c1ccccc12 | active: 6.31 µM | 
23 | Cc1cccc(Nc2ncc3c(n2)CC(c2ccco2)CC3=O)c1 (stereo not drawn) | inconclusive: 22.4 µM [inhibitor, single point] | 
24 | CC(=O)O[C@H]1C2=CO[C@H](C)[C@H]3[C@H]4C5=C([C@H](O)[C@H]6O[C@@H]6C5=O)[C@H](O[C@H]4C)[C@@]23C(=O)[C@H]2O[C@@H]21 | inconclusive: 1 µM [inhibitor, partial curve] | 
25 | CC1=CCCC(C)(C)C1/C=C/C(C)=N/NC(=O)c1ccncc1 (stereo not drawn) | active: 2.82 µM | 

Row | Structure (SMILES) | Potency | activity change, negative = inhibition
26 | CCOc1ccc(NC(=S)Nc2ccc(OCC)cc2)cc1 | active: 14.1 µM and active: 10 µM | 
27 | CC(C)(C)c1ccc(C(=O)NCCCN2CCN(CCCNC(=O)c3ccc(C(C)(C)C)cc3)CC2)cc1 | active: 7.08 µM | 
28 | COc1cc(/C=C2/C(=O)N(c3ccc(Br)cc3)N=C2C)cc(OC)c1OC | inconclusive: 20 µM [activator, single point] | 
29 | COc1ccc2[nH]c(=O)c(COC(=O)c3cccs3)cc2c1 | inconclusive: 11.2 µM [activator, partial curve] | 
30 | Cn1c(=O)c(C(=O)COC(=O)c2cc(C(F)(F)F)nc3c(C(F)(F)F)cccc23)c(N)n(CC2CC2)c1=O | inconclusive: 0.355 µM [activator, partial curve] | 
31 | COc1cc(C(c2c(C)[nH][nH]c2=O)c2c(C)[nH][nH]c2=O)ccc1OCc1ccc([N+](=O)[O-])cc1 | active: 6.31 µM | 
32 | CC(C)(C)c1ccc(-c2nc(C#N)c(NCc3ccncc3)o2)cc1 | inconclusive: 22.4 µM [activator, single point] | 
33 | COc1ccc(-n2nc(C(=O)NCC(=O)NCCC3=CCCCC3)c3ccccc3c2=O)cc1 | inconclusive: 20 µM [activator, partial curve, poor fit] | 
34 | Cc1ccc(S(=O)(=O)NNC(=S)NC(C)(C)C)cc1 | active: 8.91 µM | 
35 | CC(C)Oc1cccc(C(=O)C2CCCN(C(=O)c3cncs3)C2)c1 (stereo not drawn) |  | inactive: 30.1%
36 | COc1cc(C(=O)N2CCN=C2c2ccccc2)cc(OC)c1OC |  | inactive: 5.82%
37 | O=C1C(SCCO)=C(SCCO)C(=O)c2ccccc21 | active: 2.51 µM and active: 631 nM | 
38 | O=C(CCN1CCOCC1)NCC1COc2ccccc2O1 (stereo not drawn) | inconclusive: 35.5 µM [activator, single point] | 
39 | CC(=O)Nc1cccc(NC(=O)c2ccc(Br)cc2)c1 | inconclusive: 10 µM [activator, partial curve] | 
40 | C#CCOc1c(Br)cc(/C=N/O)cc1OCC |  | inactive: 4.6%
41 | C=CCc1ccccc1OCC(O)CN1CCN(Cc2ccc3c(c2)OCO3)CC1 (stereo not drawn) | inactive | 
42 | CCn1c(SCC(=O)C(C)(C)C)nnc1-c1cnccn1 | inconclusive: 12.6 µM [activator, partial curve] | 
43 | CCOc1ccc(NC(=O)c2cn(CC(C)C)c(=O)c3c2c2ccccc2n3C)cc1 |  | inactive: 15.8%
44 | O=C(CN1CCN(c2ccccc2O)CC1)Nc1ccc([N+](=O)[O-])cc1Br |  | inactive: 23.9%
45 | COCC(=O)N1CCCC(C(=O)c2ccc(-c3ccccc3)c(F)c2)C1 (stereo not drawn) | inconclusive: 22.4 µM [activator, single point] | 
46 | CCOc1ccc(OCC)c(NC(=O)CN2CCN(c3cc(C)ccc3C)CC2)c1 | inconclusive: 35.5 µM [activator, single point] | 
47 | O=C(c1cccs1)N1CCC(c2nc3ccccc3s2)CC1 | inconclusive: 6.31 µM [activator, partial curve] | 
48 | COC(=O)C1CCN(c2nc3ccccc3nc2C(C#N)C(=O)NCCc2ccccc2)CC1 (stereo not drawn) |  | inactive: 9.38%
49 | CC(=O)Nc1ccc(C(=O)CS(=O)(=O)c2ccc(C)cc2)cc1 | inconclusive: 11.2 µM [activator, partial curve] | 
50 | Cc1ccccc1NC(=O)c1cc(S(=O)(=O)c2ccccc2)ccc1Cl |  | inactive: 10.6%

Row | Structure (SMILES) | Potency | activity change, negative = inhibition
51 | COc1ccc(OC)c(CNCc2ccc3c(c2)OCO3)c1 |  | inactive: 10.6%
52 | CCc1cc2c(=O)n(CCC(C)C)c(=S)[nH]c2s1 | active: 0.199 µM | 
53 | N#C/C(=C\C=C\c1ccccc1[N+](=O)[O-])C(=O)NCc1ccccc1 | active: 14.1 µM | 
54 | COc1cc(/C=C2\SC(N)=NC2=O)ccc1O |  | inactive: 7.29%
55 | COc1ccc2c(c1)c1ncn(Cc3ccc(F)cc3)c(=O)c1n2C |  | inactive: 39.8%
56 | CCOC(=O)c1c(-c2cccc([N+](=O)[O-])c2)csc1NC(=O)C1CCCCC1 | inconclusive: 3.98 µM [activator, partial curve] | 
57 | Cc1ccc(NC(=O)c2cc(C(=O)c3cc(Cl)ccc3O)cn(-c3ccc(C)cc3)c2=O)cc1 | inconclusive: 5.62 µM [activator, partial curve] | 
58 | O=C(Nc1ccc2c(c1)OCCO2)c1cccc(S(=O)(=O)N2CCOCC2)c1 | inconclusive: 17.8 µM [activator, partial curve] | 
59 | CCCC/C=C/C(NC(=O)C(C)(C)C)c1ccccc1 (stereo not drawn) |  | inactive: 0.0243%
60 | CCN(CC)CC(=O)N1CCCC(N2CCN(c3cccc(C(F)(F)F)c3)CC2)C1 (stereo not drawn) |  | inactive: 8.45%
61 | C=CCOC(=O)c1[nH]c2c(c1C)C(=O)CC(c1ccco1)C2 (stereo not drawn) | inconclusive: 15.8 µM [activator, partial curve] | 
62 | O=C(NC1=NCCS1)c1ccc(Cl)s1 | inconclusive: 10 µM [inhibitor, partial curve, poor fit] | 
63 | COC(=O)N/N=C\c1ccccc1OC/C=C/c1ccccc1 | inconclusive: 5.01 µM [activator, full curve, poor fit] | 
64 | CN1/C(=C\C(=O)Nc2cccc(Cl)c2)C(C)(C)c2ccccc21 | inconclusive: 15.8 µM [activator, partial curve] | 
65 | COc1ccccc1NC(=O)Cn1c(CCC(=O)O)ccc1-c1ccc(C)cc1 | inconclusive: 14.1 µM [inhibitor, single point] | 
66 | CCn1c(SCC(=O)N/N=C/c2ccc(C)s2)nc2ccccc21 | inconclusive: 35.5 µM [inhibitor, single point] | 
67 | O=C(COC(=O)c1cc([N+](=O)[O-])ccc1N1CCOCC1)Nc1ccc(Cl)cc1 |  | inactive: 19.8%
68 | Cc1ccc(S(=O)(=O)CC2CSc3nc4ccccc4n32)cc1 (stereo not drawn) | inconclusive: 0.631 µM [activator, full curve, poor fit] | 
69 | CCOc1ccc(C2C(C#N)=C(N)SC(N)=C2C#N)c(OCC)c1 | active: 12.6 µM | 
70 | O=C(CSc1nc(C2CC2)nc2ccccc12)N1c2ccccc2Sc2ccccc21 | inconclusive: 0.112 µM [inhibitor, full curve, poor fit] | 
71 | O=C(CCCc1nc2ccccc2s1)Nc1ccccc1 |  | inactive: -14.9%
72 | CC1CCN(C(=O)CSc2nnc(-c3cc4ccccc4cc3O)n2Cc2ccco2)CC1 | inconclusive: 11.2 µM [activator, partial curve, poor fit] | 
73 | CCN(CC)C(=O)CC(c1ccc(OC)cc1)c1c(O)cc(OC)cc1OC (stereo not drawn) | inconclusive: 2.51 µM [inhibitor, single point] and inconclusive: 10 µM [inhibitor, partial curve] | 

An excerpt of these results, tab-delimited:
Row	Structure (SMILES)	Potency	activity change, negative = inhibition
51	COc1ccc(OC)c(CNCc2ccc3c(c2)OCO3)c1		inactive: 10.6%
52	CCc1cc2c(=O)n(CCC(C)C)c(=S)[nH]c2s1	active: 0.199 µM	
53	N#C/C(=C\C=C\c1ccccc1[N+](=O)[O-])C(=O)NCc1ccccc1	active: 14.1 µM	
54	COc1cc(/C=C2\SC(N)=NC2=O)ccc1O		inactive: 7.29%
56	CCOC(=O)c1c(-c2cccc([N+](=O)[O-])c2)csc1NC(=O)C1CCCCC1	inconclusive: 3.98 µM [activator, partial curve]	
58	O=C(Nc1ccc2c(c1)OCCO2)c1cccc(S(=O)(=O)N2CCOCC2)c1	inconclusive: 17.8 µM [activator, partial curve]	
59	CCCC/C=C/C(NC(=O)C(C)(C)C)c1ccccc1 (stereo not drawn)		inactive: 0.0243%
60	CCN(CC)CC(=O)N1CCCC(N2CCN(c3cccc(C(F)(F)F)c3)CC2)C1 (stereo not drawn)		inactive: 8.45%
61	C=CCOC(=O)c1[nH]c2c(c1C)C(=O)CC(c1ccco1)C2 (stereo not drawn)	inconclusive: 15.8 µM [activator, partial curve]	
63	COC(=O)N/N=C\c1ccccc1OC/C=C/c1ccccc1	inconclusive: 5.01 µM [activator, full curve, poor fit]	
64	CN1/C(=C\C(=O)Nc2cccc(Cl)c2)C(C)(C)c2ccccc21	inconclusive: 15.8 µM [activator, partial curve]	
68	Cc1ccc(S(=O)(=O)CC2CSc3nc4ccccc4n32)cc1 (stereo not drawn)	inconclusive: 0.631 µM [activator, full curve, poor fit]	
69	CCOc1ccc(C2C(C#N)=C(N)SC(N)=C2C#N)c(OCC)c1	active: 12.6 µM	
70	O=C(CSc1nc(C2CC2)nc2ccccc12)N1c2ccccc2Sc2ccccc21	inconclusive: 0.112 µM [inhibitor, full curve, poor fit]	
71	O=C(CCCc1nc2ccccc2s1)Nc1ccccc1		inactive: -14.9%
72	CC1CCN(C(=O)CSc2nnc(-c3cc4ccccc4cc3O)n2Cc2ccco2)CC1	inconclusive: 11.2 µM [activator, partial curve, poor fit]	
73	CCN(CC)C(=O)CC(c1ccc(OC)cc1)c1c(O)cc(OC)cc1OC (stereo not drawn)	inconclusive: 2.51 µM [inhibitor, single point] and inconclusive: 10 µM [inhibitor, partial curve]	

From PubChem BioAssay AID2551 (National Center for Advancing Translational Sciences (NCATS), 2010)
